# Test results from PubChem BioAssay AID1347423 (Functional Genomics Laboratory (NCATS/FGL), 2020).
# The whole screen tested about 52,000 sequences, of which about 210 (0.4%) were called active.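 Rule for the calls: active = gene whose silencing raises cell survival under the drug, median off-target-corrected z-score across its silencing RNAs 2 or more; inactive = the rest.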 The list shows a part of the results.
# Assay: Resistance to Poly (ADP-Ribose) Polymerase inhibitor: Gene Identification via Genome-wide siRNA Screen
# Conditions: mouse BRCA2 R2336H ES cells, olaparib, CellTiter-Glo viability; active compounds read high
# Method in brief: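 Mouse BRCA2 R2336H ES cells were reverse-transfected with siRNA (20 nM final), treated at 48 h with 500 nM olaparib, and read by CellTiter-Glo after 72 h. Scores: MAD-based z per siRNA, median per gene, seed off-target correction.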
row,Sequence,z-score
1,UAGCCAUCGCUCUUUCUUATT against Olfr594,inactive: -0.973
2,CGUGAUGUUUCGGAAGACATT against Grtp1,inactive: 0.103
3,GGUGAUUCAGUUCAAAGUATT against U2af1-rs1,inactive: 0.0757
4,GCUUUUGAUCCACAGAUUUTT against Prss33,active: 2.34
5,GGUAGUCUGAACACUCUAATT against BC008103,inactive: -1.56
6,GCUGUGUAGUGUGCUAUUUTT against Slc6a15,inactive: -2.37
7,GGGUUGAACCUAUGUCAUCTT against 8030466O12Rik,inactive: 1.38
8,GCUCACCACUUUUAAAACATT against Hectd2,inactive: 0.53
9,GGCAGUAAGAAAGGUUCAATT against Btk,inactive: -0.171
10,GGGCUGUGUAUCAAAACAUTT against 5630401J11Rik,inactive: 1.44
11,GUAUCCUUCACAACUGUCUTT against Olfr786,inactive: -0.967
12,AGCUCAUUUACAAGUGAGGTT against 1700073E17Rik,inactive: 0.513
13,GGUCAAAACUGCUCUGCACTT against Lepr,inactive: 0.452
14,GGAGCAUGGAACAAUAAUATT against Fli1,inactive: -0.299
15,GGACGAGGAGUACGAGCAATT against Nfkbia,inactive: -0.4
16,GGAUGCAUCUAAGGAUAAGTT against Gna13,inactive: -0.156
17,CGGUGGUAGAUGAGAUGUUTT against Ap2s1,inactive: -1.66
18,CGUUCAUUUCUAAUGGAAATT against Fkbp14,inactive: 0.965
19,GGACAAAGAAGAUUCCAUUTT against Ctps2,inactive: 0.21
20,GGAAAAACCGUCCAGAUCCTT against Umpk,inactive: 0.0852
21,GAGUGCAUUCUUUUGGCAUTT against Olfr5,inactive: -0.738
22,GGUAGAACCUAGAAGAGAGTT against BC024955,inactive: 0.676
23,GGCACAAGGCAACUGACUATT against Atp2a1,inactive: -1.24
24,CAAGGACGGGCUUCUAGUUTT against V1rh2,inactive: 1.88
25,GCAGGCUUAAUGAAUUCUATT against 6230416J20Rik,inactive: -1.08
26,CCGUACGAUGAUAAUACCATT against 3110037K17Rik,inactive: 0.126

row,Sequence,z-score
1,CUCUCGAACAAUCAACCACTT against Olfr315,inactive: -0.314
2,GCUGAACCUGCAGCACAUCTT against Ubie,inactive: 0.253
3,CGGAGUCAAAUUGUAUAAATT against 1810018L02Rik,inactive: -0.376
4,GAGCUGAAGAAGUGCUCUUTT against Rarres2,inactive: 0.774
5,GAAGCUGUUGCUACUGGACTT against Tifp39,inactive: 0.346
6,GGCAGUACAACUGGUCUACTT against 0610040J01Rik,inactive: 0.0523
7,CCGAAUGUGCCUUUAAGAATT against Sema4a,inactive: -0.388
8,GCAGGCCUACCUUACCCUATT against Adam32,inactive: -1.54
9,CGCUCUAGGAAAACAAUGUTT against AV071179,inactive: -2.02
10,CCACACUGCAGUGUCAGAATT against Olfr490,inactive: -0.574
11,GCAUUUUGCUUACUUACUGTT against 9530046H09Rik,inactive: 1.63
12,GGUUAAUGCCCGAUGAAGGTT against Gdap1,inactive: -0.71
13,GGUCACGAUGUAGCACGCUTT against Gm169,inactive: 2.01
14,GGUAGUGUGAUCAAGACACTT against Spred2,inactive: 1.27
15,GGUGCAGUCCUCCAGAAUUTT against 3110056O03Rik,inactive: -1.12
16,GGGACCUGAUCAUAAACUATT against 5830442J12Rik,inactive: -0.445
17,CCCUUUAAUACAUACAGUUTT against Mesp2,inactive: 1.05
18,GGACAGGAAAAUACUCAGATT against Cml5,inactive: -0.229
19,CCACUUUUGUAAUGGAAGCTT against BC024997,inactive: 0.517
20,GGCCUAUGUCAGCACUUUATT against Eif3s5,inactive: -2.81
21,GCGCAAAGAAGUGACUUCATT against Txln,inactive: -2.78
22,GGAGUCUUAAAAGCAAAGATT against Serpinb11,inactive: -0.108
23,GGAGCUCAAGGAAGAGUACTT against 2600017H08Rik,inactive: -1.99
24,CGGAUAUUUGGCAUGGUCCTT against Slc5a4b,inactive: 0.735
25,GGCAACAACACAUUCAGAGTT against Enah,inactive: -0.601
26,GGAUGUUAUUCGCCACGCGTT against Znf335,inactive: 2.38

row,Sequence,z-score
1,GGGAUUUGCUGUGAGAAUUTT against Fin15,inactive: -0.463
2,GGGCGAUUAUCUGUGGAAATT against Syt14l,inactive: -0.0776
3,CGUGUGUUACUUCUCAGACTT against Crtam,inactive: 0.911
4,GGAAGAGAAUGAAAUGUACTT against 6530403A03Rik,inactive: 1.8
5,GGUCCUCAAGCUCAUGGAUTT against Lzf,inactive: 1.72
6,GGGAGAAAUUCUGUAUUCATT against Aldh5a1,inactive: 3.07
7,GCUCUAUCGAAUCAUAUUATT against Pdzk6,inactive: -1.36
8,GCCCAGUGAUUGGAAACGATT against 1810061M12Rik,inactive: 0.132
9,GGAUACAUUAAUUGUUUGGTT against AW011752,inactive: 0.68
10,GCAAGUGAGUUAGCAGUCATT against Atp2c1,inactive: -0.615
11,GGAAAAUCCCUGUGUCCGATT against 4930451F05Rik,inactive: 2.07
12,GGAGCUGUCUCUACGAAACTT against Myoz3,inactive: -0.55
13,GGAUUUGUGUCCAUCGUGCTT against Olfr66,inactive: -0.179
14,GGUCAUUUCCUUCGCUGGATT against Olfr739,inactive: 2
15,GGUUCCUACGCUUCAUUCCTT against Cntnap4,inactive: 0.19
16,CCUUCUAGUGCAUCAGUGGTT against Olfr890,inactive: 0.382
17,GCGACUGAGUGACUAUGCUTT against Kcnn3,inactive: 0.138
18,GCCGAUGAAGCCUUAUUGCTT against Bfsp1,inactive: 1.5
19,GGAACCUCUCCUGAUCACCTT against BC026374,inactive: -0.676
20,GAUCUUGGUUAUUCUACAUTT against Olfr1047,inactive: -1.09
21,CCUGGACAACCAACACUUATT against Pex13,inactive: 1.33
22,GGCUAUGUAGAUGGUUUUGTT against B830017H08Rik,inactive: 1.72
23,GGAUUUGGCCAACUCACCCTT against Acpp,active: 0.16
24,GGCACAAAAGAAGAAGAUGTT against 0610039N19Rik,inactive: 0.834
25,GGUGCAGAGGAUCUACUAATT against 2700055A20Rik,inactive: -2.6
26,GGACCUACAGCAUGGUAACTT against Pex3,inactive: -2.07

row,Sequence,z-score
1,CCAAUCAUGUGGAUAUUUATT against Syngr3,inactive: 0.403
2,GGACAAGAUGGUGUCUAUCTT against Olfr1396,inactive: -1.81
3,CCUAGACAAAGUUUCAAACTT against Xrcc4,inactive: 0.484
4,GGGACAAGUGACUGAAUUGTT against Dio3,inactive: 0.877
5,GGUGAUUGUCAAGAUUAUGTT against Olfr651,inactive: -1.01
6,GGGCCUAUCUGAAAGUUUATT against Nrm,inactive: 0.622
7,GGAUUAAUCUGUGGAACUUTT against 2900026H06Rik,inactive: 0.736
8,GCAACAUAAAAGAUUCUUGTT against Il1f5,inactive: -0.249
9,GGCAUCGUAGGAUUUUUUGTT against Mtch2,inactive: 1.42
10,GCUCCUAAAAAGGCUCUUUTT against Hist2h2aa1,inactive: 0.0504
11,GGAUUUGUAGUUCAUCUCATT against Olfr77,inactive: -0.394
12,GGGUUCAAGAAAUGAUAAUTT against F11,inactive: 0.329
13,GGCGAUGAUCCGAAAACAGTT against 4831417L10,inactive: -0.297
14,GGCAGAGAUGGAGUUGGUCTT against 4933429I20Rik,inactive: -0.739
15,GCCGUGGAGGCUAAAAUCCTT against D5Ertd135e,inactive: 1.39
16,GGAAGAUGGAUUGUUUCUUTT against F5,inactive: 2
17,GGAAUGUACCAGAAAUACUTT against 4921504E06Rik,inactive: -0.216
18,GGCUGUUUGUUGUGUUUAATT against Drbp1,inactive: -0.849
19,GGAUAGACUGGACAGCAGCTT against Retn,inactive: 0.0248
20,UCGACUACCUUUGAGUCAGTT against Hoxa4,inactive: 0.129
21,GUUUCAAGUAUGUUCUGCATT against A430072C10Rik,inactive: -1.68
22,GGUGAUCUUCAAAUUGGAGTT against Zfp90,inactive: -0.401
23,GGAAUUACGAAGCUGUGUGTT against Cdkl3,inactive: -0.366
24,GUUGCUCAAAGUGUCCAAGTT against Rpl36,inactive: -2.34
25,AACCAUGAUGCUUACGUUUTT against S100a10,inactive: 0.819
26,GGUUGUUUGCUUACGAUGUTT against BC055368,inactive: 0.59

# 29 entries from above, with tabs:
row	Sequence	z-score
21	CCUGGACAACCAACACUUATT against Pex13	inactive: 1.33
22	GGCUAUGUAGAUGGUUUUGTT against B830017H08Rik	inactive: 1.72
23	GGAUUUGGCCAACUCACCCTT against Acpp	active: 0.16
24	GGCACAAAAGAAGAAGAUGTT against 0610039N19Rik	inactive: 0.834
25	GGUGCAGAGGAUCUACUAATT against 2700055A20Rik	inactive: -2.6
26	GGACCUACAGCAUGGUAACTT against Pex3	inactive: -2.07
1	CCAAUCAUGUGGAUAUUUATT against Syngr3	inactive: 0.403
2	GGACAAGAUGGUGUCUAUCTT against Olfr1396	inactive: -1.81
3	CCUAGACAAAGUUUCAAACTT against Xrcc4	inactive: 0.484
5	GGUGAUUGUCAAGAUUAUGTT against Olfr651	inactive: -1.01
7	GGAUUAAUCUGUGGAACUUTT against 2900026H06Rik	inactive: 0.736
8	GCAACAUAAAAGAUUCUUGTT against Il1f5	inactive: -0.249
9	GGCAUCGUAGGAUUUUUUGTT against Mtch2	inactive: 1.42
10	GCUCCUAAAAAGGCUCUUUTT against Hist2h2aa1	inactive: 0.0504
11	GGAUUUGUAGUUCAUCUCATT against Olfr77	inactive: -0.394
12	GGGUUCAAGAAAUGAUAAUTT against F11	inactive: 0.329
13	GGCGAUGAUCCGAAAACAGTT against 4831417L10	inactive: -0.297
14	GGCAGAGAUGGAGUUGGUCTT against 4933429I20Rik	inactive: -0.739
15	GCCGUGGAGGCUAAAAUCCTT against D5Ertd135e	inactive: 1.39
16	GGAAGAUGGAUUGUUUCUUTT against F5	inactive: 2
18	GGCUGUUUGUUGUGUUUAATT against Drbp1	inactive: -0.849
19	GGAUAGACUGGACAGCAGCTT against Retn	inactive: 0.0248
20	UCGACUACCUUUGAGUCAGTT against Hoxa4	inactive: 0.129
21	GUUUCAAGUAUGUUCUGCATT against A430072C10Rik	inactive: -1.68
22	GGUGAUCUUCAAAUUGGAGTT against Zfp90	inactive: -0.401
23	GGAAUUACGAAGCUGUGUGTT against Cdkl3	inactive: -0.366
24	GUUGCUCAAAGUGUCCAAGTT against Rpl36	inactive: -2.34
25	AACCAUGAUGCUUACGUUUTT against S100a10	inactive: 0.819
26	GGUUGUUUGCUUACGAUGUTT against BC055368	inactive: 0.59
